Experimental data taken from patent US20200165351A1 (University of California, published 2020).
Results are given in words; binding and its absence hold for the method and conditions named. Some results given as binding are weak or reduced against the parent protein; the word gives no strength. Tags and fused reporters may be left off the sequences shown. Values belong to the binder of their own block, whether it stands above or below them.

Tests used:
[1] = biological target: T1, recombinant human N-cadherin ECD2-Fc fusion protein (human; murine) (UniProt P19022); test: immunoblot, scFv detected with anti-c-Myc
T1 sequence (looked up): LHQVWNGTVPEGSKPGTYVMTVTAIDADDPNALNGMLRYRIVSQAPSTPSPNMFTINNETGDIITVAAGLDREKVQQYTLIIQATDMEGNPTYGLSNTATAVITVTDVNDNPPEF

[2] = biological target: T2, recombinant human N-cadherin ECD1-3-Fc (human; murine, UniProt P19022 160-497); test: immunoblot, scFv detected with anti-c-Myc
T2 construct: range 160-497; Cloned into pSECTag2A(AgeI); produced in 293-F cells, Protein A purified; also called Ncad-ECD1-3-Fc; not shown: murine gamma 2a Fc region
T2 sequence (looked up): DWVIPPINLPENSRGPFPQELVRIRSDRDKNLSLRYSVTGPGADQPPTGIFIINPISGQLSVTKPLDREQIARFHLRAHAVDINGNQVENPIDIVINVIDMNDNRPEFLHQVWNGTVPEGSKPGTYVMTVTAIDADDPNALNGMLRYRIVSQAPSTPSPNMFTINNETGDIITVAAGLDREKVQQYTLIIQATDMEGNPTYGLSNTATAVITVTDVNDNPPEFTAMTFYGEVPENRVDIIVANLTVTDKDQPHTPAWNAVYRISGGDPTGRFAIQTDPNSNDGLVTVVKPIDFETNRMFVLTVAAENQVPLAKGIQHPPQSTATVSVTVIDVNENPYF

[3] = biological target: T2, recombinant human N-cadherin ECD1-3-Fc; test: ELISA, saturation binding on immobilized antigen
Experimental: Saturation binding of the humanized scFv fragments was performed on immobilized recombinant human Ncad-ECD1-3-Fc in ELISA (FIG. 8) confirming successful humanization and retained antigen specificity.

[4] = biological target: T3, recombinant human N-cadherin ECD3-Fc fusion protein (human; murine) (UniProt P19022); test: immunoblot, scFv detected with anti-c-Myc
T3 sequence (looked up): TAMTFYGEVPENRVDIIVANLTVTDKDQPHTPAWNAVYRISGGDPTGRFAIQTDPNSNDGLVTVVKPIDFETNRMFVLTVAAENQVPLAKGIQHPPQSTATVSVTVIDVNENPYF

binding [1]: binds
binding [2]: binds
binding [3]: binds
B1: humanized 1H7 scFv v1 (scFv)
scFv: QVQLVQSGAEVKKPGASVKVSCKASGFTFTDYLIQWVRQAPGQGLEWIGWIYPGSGSIKYNEKFQGRVTMTADTSINTAYMELSRLRSDDTAVYFCARRGDWGGFFDYWGQGTLVTVSSGGGGSGGGGSGGGGSEIVLTQSPATLSLSPGERATLSCTASSSVSSSYLHWYQQKPGLAPRLWIFSTSNLASGIPDRFSGSGSGTDFTLTISRLEPEDFAVYYCHQYHRSLTFGGGTKVEIK

binding [4]: binds
B2: humanized 2A9 scFv (scFv)
scFv: QVQLVQSGAEVKKPGASVKLSCKASGYTFTSYWMQWVRQAPGQGLEWIGAIYPGDGETTYTQKFKGRVTMTADTSISTAYMELSRLRSDDTAVYYCAKGDGYWAMDYWGQGTLVTVSSGGGGSGGGGSGGGGSDVVMTQSPLSLPVTLGQPASISCRSSQSLVHSNGNTYLHWYQQRPGQSPRLLIYKVSNRFSGVPDRFSGSGSGTDFTLKISRVEAEDVGVYYCSQSTHVPLTFGAGTKLELK
notes: VH-(G4S)3-VL scFv secreted with the Ig kappa leader; also called hu2A9 scFv; scFv hu2A9; not shown: C-terminal tag from vector pSECTag2A (His-tag; detected through c-Myc)
